Test results from paper PMC8074078.
These are yes or no findings as the source states them, for the method shown. In cells and extracts the contact can be indirect. These calls come from enrichment with a bait or labelling near it, and not all partners need be listed.

Protein sequences, listed by entry. Tags and fused reporters are not part of them. Lines headed by an entry give the natural chain unless they say otherwise; changes in a name come on top. Chains listed by the source or under a name are the forms on record and can include a tag or linker.
His6-PACRG (Parkin co-regulated gene) (Q96M98, form named): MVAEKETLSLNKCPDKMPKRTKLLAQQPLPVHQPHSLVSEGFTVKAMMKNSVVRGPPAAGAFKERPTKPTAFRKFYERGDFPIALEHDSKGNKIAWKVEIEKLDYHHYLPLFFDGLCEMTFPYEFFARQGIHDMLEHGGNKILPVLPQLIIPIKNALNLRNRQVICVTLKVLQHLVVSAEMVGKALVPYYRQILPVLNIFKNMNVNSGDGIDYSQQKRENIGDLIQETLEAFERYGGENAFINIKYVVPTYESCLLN

Tests used:
His6-GST-PACRG (human) = His6-GST-PACRG (human) (UniProt Q96M98); test: affinity purification with mass spectrometry; purified His6-tagged bait coupled to Ni2+-charged resin (2 h, 4 °C), incubated 2 h with supernatant of HEK293T cell lysate, washed three times with 5 mM imidazole; bound proteins identified by LC-MS/MS; controls: Ni2+-charged resin alone (for His6-PACRG) and His6-GST (for His6-GST-PACRG); only proteins found with both baits accepted; only the target purified
[1] = molecular target: His6-PACRG (Parkin co-regulated gene) (human) (UniProt Q96M98); test: as above

Row | Binder | binding (His6-GST-PACRG (human)) | binding [1]
1 | MID1 (protein, UniProt O15344 1-667) METLESELTCPICLELFEDPLLLPCAHSLCFNCAHRILVSHCATNESVESITAFQCPTCRHVITLSQRGLDGLKRNVTLQNIIDRFQKASVSGPNSPSETRRERAFDANTMTSAEKVLCQFCDQDPAQDAVKTCVTCEVSYCDECLKATHPNKKPFTGHRLIEPIPDSHIRGLMCLEHEDEKVNMYCVTDDQLICALCKLVGRHRDHQVAALSERYDKLKQNLESNLTNLIKRNTELETLLAKLIQTCQHVEVNASRQEAKLTEECDLLIEIIQQRRQIIGTKIKEGKVMRLRKLAQQIANCKQCIERSASLISQAEHSLKENDHARFLQTAKNITERVSMATASSQVLIPEINLNDTFDTFALDFSREKKLLECLDYLTAPNPPTIREELCTASYDTITVHWTSDDEFSVVSYELQYTIFTGQANVVSLCNSADSWMIVPNIKQNHYTVHGLQSGTKYIFMVKAINQAGSRSSEPGKLKTNSQPFKLDPKSAHRKLKVSHDNLTVERDESSSKKSHTPERFTSQGSYGVAGNVFIDSGRHYWEVVISGSTWYAIGLAYKSAPKHEWIGKNSASWALCRCNNNWVVRHNSKEIPIEPAPHLRRVGILLDYDNGSIAFYDALNSIHLYTFDVAFAQPVCPTFTVWNKCLTIITGLPIPDHLDCTEQLP | binds | binds
2 | CCDC6 (protein, UniProt Q16204 1-474) MADSASESDTDGAGGNSSSSAAMQSSCSSTSGGGGGGGGGGGGGKSGGIVISPFRLEELTNRLASLQQENKVLKIELETYKLKCKALQEENRDLRKASVTIQARAEQEEEFISNTLFKKIQALQKEKETLAVNYEKEEEFLTNELSRKLMQLQHEKAELEQHLEQEQEFQVNKLMKKIKKLENDTISKQLTLEQLRREKIDLENTLEQEQEALVNRLWKRMDKLEAEKRILQEKLDQPVSAPPSPRDISMEIDSPENMMRHIRFLKNEVERLKKQLRAAQLQHSEKMAQYLEEERHMREENLRLQRKLQREMERREALCRQLSESESSLEMDDERYFNEMSAQGLRPRTVSSPIPYTPSPSSSRPISPGLSYASHTVGFTPPTSLTRAGMSYYNSPGLHVQHMGTSHGITRPSPRRSNSPDKFKRPTPPPSPNTQTPVQPPPPPPPPPMQPTVPSAATSQPTPSQHSAHPSSQP | binds | binds
3 | ABCD3 (protein, UniProt P28288 1-659) MAAFSKYLTARNSSLAGAAFLLLCLLHKRRRALGLHGKKSGKPPLQNNEKEGKKERAVVDKVFFSRLIQILKIMVPRTFCKETGYLVLIAVMLVSRTYCDVWMIQNGTLIESGIIGRSRKDFKRYLLNFIAAMPLISLVNNFLKYGLNELKLCFRVRLTKYLYEEYLQAFTYYKMGNLDNRIANPDQLLTQDVEKFCNSVVDLYSNLSKPFLDIVLYIFKLTSAIGAQGPASMMAYLVVSGLFLTRLRRPIGKMTITEQKYEGEYRYVNSRLITNSEEIAFYNGNKREKQTVHSVFRKLVEHLHNFILFRFSMGFIDSIIAKYLATVVGYLVVSRPFLDLSHPRHLKSTHSELLEDYYQSGRMLLRMSQALGRIVLAGREMTRLAGFTARITELMQVLKDLNHGKYERTMVSQQEKGIEGVQVIPLIPGAGEIIIADNIIKFDHVPLATPNGDVLIRDLNFEVRSGANVLICGPNGCGKSSLFRVLGELWPLFGGRLTKPERGKLFYVPQRPYMTLGTLRDQVIYPDGREDQKRKGISDLVLKEYLDNVQLGHILEREGGWDSVQDWMDVLSGGEKQRMAMARLFYHKPQFAILDECTSAVSVDVEGYIYSHCRKVGITLFTVSHRKSLWKHHEYYLHMDGRGNYEFKQITEDTVEFGS | binds | binds

Further lines, results first:

Row | binding (His6-GST-PACRG (human)) | binding [1] | Binder
4 | binds | binds | TRIP4 (protein, UniProt Q15650 1-581) MAVAGAVSGEPLVHWCTQQLRKTFGLDVSEEIIQYVLSIESAEEIREYVTDLLQGNEGKKGQFIEELITKWQKNDQELISDPLQQCFKKDEILDGQKSGDHLKRGRKKGRNRQEVPAFTEPDTTAEVKTPFDLAKAQENSNSVKKKTKFVNLYTREGQDRLAVLLPGRHPCDCLGQKHKLINNCLICGRIVCEQEGSGPCLFCGTLVCTHEEQDILQRDSNKSQKLLKKLMSGVENSGKVDISTKDLLPHQELRIKSGLEKAIKHKDKLLEFDRTSIRRTQVIDDESDYFASDSNQWLSKLERETLQKREEELRELRHASRLSKKVTIDFAGRKILEEENSLAEYHSRLDETIQAIANGTLNQPLTKLDRSSEEPLGVLVNPNMYQSPPQWVDHTGAASQKKAFRSSGFGLEFNSFQHQLRIQDQEFQEGFDGGWCLSVHQPWASLLVRGIKRVEGRSWYTPHRGRLWIAATAKKPSPQEVSELQATYRLLRGKDVEFPNDYPSGCLLGCVDLIDCLSQKQFKEQFPDISQESDSPFVFICKNPQEMVVKFPIKGNPKIWKLDSKIHQGAKKGLMKQNKAV
5 | binds | binds | SNW1 (protein, UniProt Q13573 1-536) MALTSFLPAPTQLSQDQLEAEEKARSQRSRQTSLVSSRREPPPYGYRKGWIPRLLEDFGDGGAFPEIHVAQYPLDMGRKKKMSNALAIQVDSEGKIKYDAIARQGQSKDKVIYSKYTDLVPKEVMNADDPDLQRPDEEAIKEITEKTRVALEKSVSQKVAAAMPVRAADKLAPAQYIRYTPSQQGVAFNSGAKQRVIRMVEMQKDPMEPPRFKINKKIPRGPPSPPAPVMHSPSRKMTVKEQQEWKIPPCISNWKNAKGYTIPLDKRLAADGRGLQTVHINENFAKLAEALYIADRKAREAVEMRAQVERKMAQKEKEKHEEKLREMAQKARERRAGIKTHVEKEDGEARERDEIRHDRRKERQHDRNLSRAAPDKRSKLQRNENRDISEVIALGVPNPRTSNEVQYDQRLFNQSKGMDSGFAGGEDEIYNVYDQAWRGGKDMAQSIYRPSKNLDKDMYGDDLEARIKTNRFVPDKEFSGSDRRQRGREGPVQFEEDPFGLDKFLEEAKQHGGSKRPSDSSRPKEHEHEGKKRRKE
6 | binds | binds | SEPT9 (protein, UniProt Q9UHD8 1-586) MKKSYSGGTRTSSGRLRRLGDSSGPALKRSFEVEEVETPNSTPPRRVQTPLLRATVASSTQKFQDLGVKNSEPSARHVDSLSQRSPKASLRRVELSGPKAAEPVSRRTELSIDISSKQVENAGAIGPSRFGLKRAEVLGHKTPEPAPRRTEITIVKPQESAHRRMEPPASKVPEVPTAPATDAAPKRVEIQMPKPAEAPTAPSPAQTLENSEPAPVSQLQSRLEPKPQPPVAEATPRSQEATEAAPSCVGDMADTPRDAGLKQAPASRNEKAPVDFGYVGIDSILEQMRRKAMKQGFEFNIMVVGQSGLGKSTLINTLFKSKISRKSVQPTSEERIPKTIEIKSITHDIEEKGVRMKLTVIDTPGFGDHINNENCWQPIMKFINDQYEKYLQEEVNINRKKRIPDTRVHCCLYFIPATGHSLRPLDIEFMKRLSKVVNIVPVIAKADTLTLEERVHFKQRITADLLSNGIDVYPQKEFDEDSEDRLVNEKFREMIPFAVVGSDHEYQVNGKRILGRKTKWGTIEVENTTHCEFAYLRDLLIRTHMQNIKDITSSIHFEAYRVKRLNEGSSAMANGMEEKEPEAPEM
7 | binds | binds | ORC2 (protein, UniProt Q13416 1-577) MSKPELKEDKMLEVHFVGDDDVLNHILDREGGAKLKKERAQLLVNPKKIIKKPEYDLEEDDQEVLKDQNYVEIMGRDVQESLKNGSATGGGNKVYSFQNRKHSEKMAKLASELAKTPQKSVSFSLKNDPEITINVPQSSKGHSASDKVQPKNNDKSEFLSTAPRSLRKRLIVPRSHSDSESEYSASNSEDDEGVAQEHEEDTNAVIFSQKIQAQNRVVSAPVGKETPSKRMKRDKTSDLVEEYFEAHSSSKVLTSDRTLQKLKRAKLDQQTLRNLLSKVSPSFSAELKQLNQQYEKLFHKWMLQLHLGFNIVLYGLGSKRDLLERFRTTMLQDSIHVVINGFFPGISVKSVLNSITEEVLDHMGTFRSILDQLDWIVNKFKEDSSLELFLLIHNLDSQMLRGEKSQQIIGQLSSLHNIYLIASIDHLNAPLMWDHAKQSLFNWLWYETTTYSPYTEETSYENSLLVKQSGSLPLSSLTHVLRSLTPNARGIFRLLIKYQLDNQDNPSYIGLSFQDFYQQCREAFLVNSDLTLRAQLTEFRDHKLIRTKKGTDGVEYLLIPVDNGTLTDFLEKEEEEA
